The target in the assay is T1, C-terminally biotinylated synthetic peptide of AtPNP-A (pAtPNP-A) (A. thaliana) (UniProt Q9ZV52).
T1 sequence (peptide, C-terminal biotin): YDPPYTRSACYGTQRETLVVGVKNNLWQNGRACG
The assay can be described thus: cross-linking + affinity purification with mass spectrometry; biotinylated pAtPNP-A (or biotin as control) added to A. thaliana (Col-0) mesophyll cell protoplasts with or without cross-linking agents; affinity-based isolation, LC-MS/MS; as described in ref. 44; only the target purified.

These are yes or no findings as the source states them, for the method shown. Binding seen in cells or lysates may run through a third protein. These calls come from enrichment with a bait or labelling near it, and not all partners need be listed.

B1: catalase 2 (CAT2), endogenous in A. thaliana mesophyll cell protoplasts (enzyme, UniProt P25819 1-492)
chain: MDPYKYRPASSYNSPFFTTNSGAPVWNNNSSMTVGPRGPILLEDYHLVEKLANFDRERIPERVVHARGASAKGFFEVTHDISNLTCADFLRAPGVQTPVIVRFSTVIHERGSPETLRDPRGFAVKFYTREGNFDLVGNNFPVFFIRDGMKFPDMVHALKPNPKSHIQENWRILDFFSHHPESLNMFTFLFDDIGIPQDYRHMDGSGVNTYMLINKAGKAHYVKFHWKPTCGVKSLLEEDAIRVGGTNHSHATQDLYDSIAAGNYPEWKLFIQIIDPADEDKFDFDPLDVTKTWPEDILPLQPVGRMVLNKNIDNFFAENEQLAFCPAIIVPGIHYSDDKLLQTRVFSYADTQRHRLGPNYLQLPVNAPKCAHHNNHHEGFMNFMHRDEEVNYFPSRYDQVRHAEKYPTPPAVCSGKRERCIIEKENNFKEPGERYRTFTPERQERFIQRWIDALSDPRITHEIRSIWISYWSQADKSLGQKLASRLNVRPSI
For B1, the binding result is on record as “binds”.

Source of the values: PMC7665192, “A natriuretic peptide from Arabidopsis thaliana (AtPNP-A) can modulate catalase 2 activity” (Scientific Reports, 2020).
